The record followed here is article PMC8858573.

Results are given in words; binding and its absence hold for the method and conditions named. Binding seen in cells or lysates may run through a third protein. Some results given as binding are weak or reduced against the parent protein; the word gives no strength.

This assay deals with hippocalcin (HPCA) (mouse (endogenous in mouse brain cerebrum and in BV2 cells)) (UniProt P84075). Nature of the assay: co-IP; lysates of BV2 cells treated with Eth or OBG; HPCA complex pulled down with anti-HPCA antibody (1 mg mL^-1); dectin-1 and Rab11a probed by western blot. In general terms: In western blotting, separated proteins are transferred to a membrane and probed.

B1: dectin-1 (receptor, UniProt Q6QLQ4 1-244)
chain: MKYHSHIENLDEDGYTQLDFSTQDIHKRPRGSEKGSQAPSSPWRPIAVGLGILCFVVVVVAAVLGALGEYGHNSGRNPEEKDNFLSRNKENHKPTESSLDEKVAPSKASQTTGGFSQPCLPNWIMHGKSCYLFSFSGNSWYGSKRHCSQLGAHLLKIDNSKEFEFIESQTSSHRINAFWIGLSRNQSEGPWFWEDGSAFFPNSFQVRNTAPQESLLHNCVWIHGSEVYNQICNTSSYSICEKEL
Regarding B1, the binding entry is reported as “binds”.
